From paper PMC13386968 come the findings set out here.

By UniProt entry, the sequences of proteins in these tests, tags left out. Where a name states a change or a piece, a line headed by the entry shows the natural chain unless it says otherwise.
UniProt Q01628: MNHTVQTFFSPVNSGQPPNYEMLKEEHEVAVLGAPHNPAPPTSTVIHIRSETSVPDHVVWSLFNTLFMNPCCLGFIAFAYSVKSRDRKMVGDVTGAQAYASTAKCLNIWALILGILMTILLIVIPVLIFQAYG
UniProt P13164: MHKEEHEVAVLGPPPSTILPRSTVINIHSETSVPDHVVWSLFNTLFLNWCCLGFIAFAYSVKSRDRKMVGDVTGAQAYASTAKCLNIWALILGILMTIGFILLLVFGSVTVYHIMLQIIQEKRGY

The target in one assay is FLAG-IFITM3 WT (human) (UniProt Q01628). The experiment in a line: affinity purification with mass spectrometry; anti-FLAG (M2) immunoprecipitation from whole cell lysates (1% Triton X-100, 150 mM NaCl) of HEK293T stably expressing FLAG-IFITM3 WT, G95L or empty vector; TMT-labelled proteomics; abundance ratio WT/G95L.
The target in the next assay is FLAG-IFITM3 G95L (human) (UniProt Q01628). The description is as above.

Results are given in words; binding and its absence hold for the method and conditions named. In cells and extracts the contact can be indirect. A yes stands for co-enrichment or nearness to the bait. Other partners may have been found.

In the case of “endogenous IFITM1 (from UniProt P13164 1-125)”, the binding entry in the assay with FLAG-IFITM3 WT (human) and with FLAG-IFITM3 G95L (human) was “binds” throughout.
